Test results taken from patent publication US20200325449A1, “COMPLEMENT INHIBITION FOR IMPROVING CELL VIABILITY” (THE CLEVELAND CLINIC FOUNDATION, priority 2016, published 2020).
For at least one compound, name, drawing or mass did not settle the structure.

Tested on: HL60 cell-derived neutrophils
Test: Neutrophil-mediated MSC damage assay with wortmannin
Assay type: cell-based, human

COC[C@H]1OC(=O)c2coc3c2[C@@]1(C)C1=C(C3=O)[C@@H]2CCC(=O)[C@@]2(C)C[C@H]1OC(C)=O [wortmannin]
MSC damage by neutrophils plus NHS (BCECF release) (HL-60-derived neutrophils plus 30% NHS, increasing wortmannin, plateau at level of NHS alone): gradually reduced
MSC damage by neutrophils (BCECF release) (HL-60-derived neutrophils, no NHS, wortmannin 0.001-1 μM): reduced in a dose-dependent manner
